In publication PMC11362043:
No constants are given. Whether binding was seen depends on the method and setting. Binding seen in cells or lysates may run through a third protein. Some binding calls cover weakened binding; strength is not graded here. Blank lines part the entries; values can stand above or below the molecule they belong to.

Protein sequences, listed by entry. Tags and fused reporters are not part of them. Residues count along the entry.
UniProt Q37165: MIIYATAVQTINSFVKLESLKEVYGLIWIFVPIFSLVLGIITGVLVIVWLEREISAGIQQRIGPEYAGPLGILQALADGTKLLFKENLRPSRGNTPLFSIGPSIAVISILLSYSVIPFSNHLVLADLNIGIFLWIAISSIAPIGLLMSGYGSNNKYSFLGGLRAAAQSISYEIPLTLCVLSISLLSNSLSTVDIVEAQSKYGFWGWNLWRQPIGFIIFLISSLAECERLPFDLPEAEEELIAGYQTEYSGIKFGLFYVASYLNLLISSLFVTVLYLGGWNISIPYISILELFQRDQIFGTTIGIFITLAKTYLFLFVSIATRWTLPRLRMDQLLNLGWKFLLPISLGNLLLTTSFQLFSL
UniProt Q9S841, residues 85-331: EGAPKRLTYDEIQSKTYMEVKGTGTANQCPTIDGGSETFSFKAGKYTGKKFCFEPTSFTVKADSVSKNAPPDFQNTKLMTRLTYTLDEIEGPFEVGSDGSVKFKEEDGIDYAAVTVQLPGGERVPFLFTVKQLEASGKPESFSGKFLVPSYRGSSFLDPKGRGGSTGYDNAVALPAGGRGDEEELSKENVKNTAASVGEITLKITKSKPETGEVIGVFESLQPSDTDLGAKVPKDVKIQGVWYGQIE
UniProt P59230: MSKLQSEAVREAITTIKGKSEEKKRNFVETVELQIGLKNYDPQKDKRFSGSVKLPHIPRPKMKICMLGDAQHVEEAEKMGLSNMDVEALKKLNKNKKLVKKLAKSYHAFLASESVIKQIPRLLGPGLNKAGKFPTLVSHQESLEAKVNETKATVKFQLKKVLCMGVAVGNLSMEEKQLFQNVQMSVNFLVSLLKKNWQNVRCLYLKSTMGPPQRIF
UniProt P56774: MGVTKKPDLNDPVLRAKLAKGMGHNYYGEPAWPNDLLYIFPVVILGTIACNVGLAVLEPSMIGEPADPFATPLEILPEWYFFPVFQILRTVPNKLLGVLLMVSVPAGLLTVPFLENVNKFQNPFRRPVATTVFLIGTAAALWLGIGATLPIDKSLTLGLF
UniProt P25873, residues 68-277: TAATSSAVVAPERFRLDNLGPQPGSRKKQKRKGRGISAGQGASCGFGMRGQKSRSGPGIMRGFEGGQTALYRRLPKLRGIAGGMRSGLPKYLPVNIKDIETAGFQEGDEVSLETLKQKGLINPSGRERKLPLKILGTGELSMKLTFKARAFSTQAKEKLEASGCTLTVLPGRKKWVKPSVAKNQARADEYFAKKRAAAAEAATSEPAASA

Key:
Assay in all cases: cross-linking; 1 mM DSBU (MS-cleavable) directly after cell disruption and again after chloroplast isolation; 1% SDS; lpBN-PAGE fractions digested with trypsin; interlinks identified by MS (MaxLynx); plants acclimated to LL, GL, EL or HL (20, 120, 600, 1000 µmol m^-2 s^-1)
[1] = target: NdhA (Arabidopsis thaliana (endogenous in leaf chloroplast isolate)) (UniProt Q37165)
[2] = target: PsbO2 (Arabidopsis thaliana (endogenous in leaf chloroplast isolate)) (UniProt Q9S841)
[3] = target: T1, TL20.3 (Arabidopsis thaliana (endogenous in leaf chloroplast isolate)) (UniProt Q8H1Q1)
T1 sequence: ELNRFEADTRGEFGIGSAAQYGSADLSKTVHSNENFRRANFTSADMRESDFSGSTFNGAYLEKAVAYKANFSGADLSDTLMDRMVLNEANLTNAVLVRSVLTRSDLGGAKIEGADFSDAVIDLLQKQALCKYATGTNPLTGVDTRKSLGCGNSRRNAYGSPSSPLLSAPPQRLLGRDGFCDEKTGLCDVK

[4] = target: RPL10AB (Arabidopsis thaliana (endogenous in leaf chloroplast isolate)) (UniProt P59230)
[5] = target: PetD (Arabidopsis thaliana (endogenous in leaf chloroplast isolate)) (UniProt P56774)
[6] = target: T2, FIB1A (Arabidopsis thaliana (endogenous in leaf chloroplast isolate)) (UniProt O81439)
T2 sequence: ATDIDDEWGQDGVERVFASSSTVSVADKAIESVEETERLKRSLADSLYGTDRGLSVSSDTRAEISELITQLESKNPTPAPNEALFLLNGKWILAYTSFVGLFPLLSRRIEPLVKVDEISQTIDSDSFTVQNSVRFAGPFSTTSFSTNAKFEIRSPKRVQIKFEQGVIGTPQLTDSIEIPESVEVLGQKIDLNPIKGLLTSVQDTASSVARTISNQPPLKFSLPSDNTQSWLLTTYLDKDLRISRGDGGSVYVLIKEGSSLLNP

[7] = target: T3, FtsH5 (Arabidopsis thaliana (endogenous in leaf chloroplast isolate)) (UniProt Q9FH02)
T3 sequence: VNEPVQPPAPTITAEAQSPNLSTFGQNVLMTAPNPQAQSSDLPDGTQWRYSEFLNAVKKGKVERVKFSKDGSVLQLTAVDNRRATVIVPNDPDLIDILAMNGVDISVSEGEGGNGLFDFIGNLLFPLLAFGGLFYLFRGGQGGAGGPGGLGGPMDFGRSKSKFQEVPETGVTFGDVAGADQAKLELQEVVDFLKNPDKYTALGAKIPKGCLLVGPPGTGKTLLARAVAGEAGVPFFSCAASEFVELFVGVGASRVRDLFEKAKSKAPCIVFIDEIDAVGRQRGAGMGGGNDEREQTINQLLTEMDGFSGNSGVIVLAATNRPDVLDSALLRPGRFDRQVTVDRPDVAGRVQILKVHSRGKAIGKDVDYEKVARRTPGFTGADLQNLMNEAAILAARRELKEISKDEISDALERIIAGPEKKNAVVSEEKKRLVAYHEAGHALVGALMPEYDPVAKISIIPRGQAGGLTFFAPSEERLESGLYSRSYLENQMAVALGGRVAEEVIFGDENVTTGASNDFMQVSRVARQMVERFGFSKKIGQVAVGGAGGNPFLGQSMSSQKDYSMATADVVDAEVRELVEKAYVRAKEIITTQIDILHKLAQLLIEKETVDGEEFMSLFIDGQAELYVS

binding [1]: binds
Molecule: PsbO2 (from UniProt Q9S841 85-331)

binding [2]: binds
Molecule: RPL15 (from UniProt P25873 68-277)

binding [3]: binds
B1: PSB27-H1 (protein, UniProt Q9LR64 69-174)
chain: AEDEEYIKDTSAVISKVRSTLSMQKTDPNVADAVAELREASNSWVAKYRKEKALLGKASFRDIYSALNAVSGHYVSFGPTAPIPAKRKARILEEMETAEKALTRGR

binding [4]: binds
B2: PsbP1 (protein, UniProt Q42029 78-263)
chain: AYGEAANVFGKPKTNTDFLPYNGDGFKVQVPAKWNPSKEIEYPGQVLRFEDNFDATSNLNVMVTPTDKKSITDYGSPEEFLSQVNYLLGKQAYFGETASEGGFDNNAVATANILESSSQEVGGKPYYYLSVLTRTADGDEGGKHQLITATVNGGKLYICKAQAGDKRWFKGARKFVESAATSFSVA

binding [5]: binds
B3: HSP70–6 (protein, UniProt Q9STW6 93-718)
chain: AAMEGGKPTIVTNAEGQRTTPSVVAYTKSGDRLVGQIAKRQAVVNPENTFFSVKRFIGRKMNEVDEESKQVSYRVVRDENNNVKLECPAINKQFAAEEISAQVLRKLVDDASRFLNDKVTKAVITVPAYFNDSQRTATKDAGRIAGLEVLRIINEPTAASLAYGFDRKANETILVFDLGGGTFDVSVLEVGDGVFEVLSTSGDTHLGGDDFDKRVVDWLAAEFKKDEGIDLLKDKQALQRLTEAAEKAKIELSSLTQTNMSLPFITATADGPKHIETTLTRAKFEELCSDLLDRVRTPVENSLRDAKLSFKDIDEVILVGGSTRIPAVQELVRKVTGKEPNVTVNPDEVVALGAAVQAGVLAGDVSDIVLLDVTPLSIGLETLGGVMTKIIPRNTTLPTSKSEVFSTAADGQTSVEINVLQGEREFVRDNKSLGSFRLDGIPPAPRGVPQIEVKFDIDANGILSVSAVDKGTGKKQDITITGASTLPKDEVDQMVQEAERFAKDDKEKRDAIDTKNQADSVVYQTEKQLKELGEKIPGEVKEKVEAKLQELKDKIGSGSTQEIKDAMAALNQEVMQIGQSLYNQPGAGGPGAGPSPGGEGASSGDSSSSKGGDGDDVIDADFTDSQ

binding [6]: binds
B4: PsbR (protein, UniProt P27202 42-140)
chain: SGVKKIKTDKPFGINGSMDLRDGVDASGRKGKGYGVYKYVDKYGANVDGYSPIYNENEWSASGDVYKGGVTGLAIWAVTLAGILAGGALLVYNTSALAQ

binding [7]: binds
B5: Psb29 (protein, UniProt Q9SKT0 68-300)
chain: SETKSKFLKAYKRPIPSIYNTVLQELIVQQHLMRYKKTYRYDPVFALGFVTVYDQLMEGYPSDQDRDAIFKAYIEALNEDPKQYRIDAQKMEEWARSQTSASLVDFSSKEGDIEAVLKDIAGRAGSKEGFSYSRFFAVGLFRLLELASATDPTVLDKLCASLNINKKSVDRDLDVYRNLLSKLVQAKELLKEYVEREKKKQGERAQSQKANETISKCLGDTLYNPSFLVERKS
